40 targets from the supplement of paper PMC12067093, “Discovery and optimisation of a covalent ligand for TRIM25 and its application to targeted protein ubiquitination” (Chemical Science, 2025) can be followed below.

Amino acid sequences for entries named in this document (tags omitted). A change or cut given only in a name is not applied to a line headed by its entry.
UniProt Q8WXI9: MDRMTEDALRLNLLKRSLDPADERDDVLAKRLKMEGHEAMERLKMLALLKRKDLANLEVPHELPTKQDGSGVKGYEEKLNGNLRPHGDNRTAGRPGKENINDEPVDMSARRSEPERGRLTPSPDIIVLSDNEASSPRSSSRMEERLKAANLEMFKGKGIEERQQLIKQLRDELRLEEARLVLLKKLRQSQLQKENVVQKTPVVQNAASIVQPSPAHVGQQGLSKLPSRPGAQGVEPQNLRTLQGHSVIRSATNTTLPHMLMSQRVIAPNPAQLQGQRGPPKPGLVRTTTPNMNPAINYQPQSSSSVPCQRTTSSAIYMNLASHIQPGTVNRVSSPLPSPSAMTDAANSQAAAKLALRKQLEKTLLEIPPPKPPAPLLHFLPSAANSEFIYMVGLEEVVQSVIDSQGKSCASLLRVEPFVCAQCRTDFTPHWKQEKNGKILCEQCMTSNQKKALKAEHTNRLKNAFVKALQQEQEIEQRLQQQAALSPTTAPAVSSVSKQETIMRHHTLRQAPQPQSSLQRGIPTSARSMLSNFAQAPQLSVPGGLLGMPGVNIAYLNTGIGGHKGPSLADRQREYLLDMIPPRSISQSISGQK
UniProt P16383: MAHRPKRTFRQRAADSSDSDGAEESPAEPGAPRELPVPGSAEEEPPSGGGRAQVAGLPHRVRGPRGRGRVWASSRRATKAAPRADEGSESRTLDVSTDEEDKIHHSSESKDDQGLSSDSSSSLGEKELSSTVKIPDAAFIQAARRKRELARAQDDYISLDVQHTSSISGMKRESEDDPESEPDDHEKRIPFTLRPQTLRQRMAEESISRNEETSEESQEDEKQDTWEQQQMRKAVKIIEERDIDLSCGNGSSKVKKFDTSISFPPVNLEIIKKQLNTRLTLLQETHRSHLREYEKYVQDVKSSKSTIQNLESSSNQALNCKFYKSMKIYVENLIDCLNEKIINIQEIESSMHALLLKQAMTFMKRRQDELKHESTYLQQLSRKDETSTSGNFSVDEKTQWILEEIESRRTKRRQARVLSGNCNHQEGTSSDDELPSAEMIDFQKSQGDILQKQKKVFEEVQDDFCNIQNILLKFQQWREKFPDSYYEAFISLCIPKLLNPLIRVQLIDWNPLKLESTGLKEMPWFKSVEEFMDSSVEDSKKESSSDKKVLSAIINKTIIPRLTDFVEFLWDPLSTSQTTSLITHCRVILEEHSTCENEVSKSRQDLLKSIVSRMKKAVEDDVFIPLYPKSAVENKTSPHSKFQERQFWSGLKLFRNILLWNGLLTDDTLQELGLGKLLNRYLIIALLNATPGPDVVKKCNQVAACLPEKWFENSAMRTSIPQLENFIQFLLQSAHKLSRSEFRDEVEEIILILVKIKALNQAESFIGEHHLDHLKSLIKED
UniProt Q86YP4: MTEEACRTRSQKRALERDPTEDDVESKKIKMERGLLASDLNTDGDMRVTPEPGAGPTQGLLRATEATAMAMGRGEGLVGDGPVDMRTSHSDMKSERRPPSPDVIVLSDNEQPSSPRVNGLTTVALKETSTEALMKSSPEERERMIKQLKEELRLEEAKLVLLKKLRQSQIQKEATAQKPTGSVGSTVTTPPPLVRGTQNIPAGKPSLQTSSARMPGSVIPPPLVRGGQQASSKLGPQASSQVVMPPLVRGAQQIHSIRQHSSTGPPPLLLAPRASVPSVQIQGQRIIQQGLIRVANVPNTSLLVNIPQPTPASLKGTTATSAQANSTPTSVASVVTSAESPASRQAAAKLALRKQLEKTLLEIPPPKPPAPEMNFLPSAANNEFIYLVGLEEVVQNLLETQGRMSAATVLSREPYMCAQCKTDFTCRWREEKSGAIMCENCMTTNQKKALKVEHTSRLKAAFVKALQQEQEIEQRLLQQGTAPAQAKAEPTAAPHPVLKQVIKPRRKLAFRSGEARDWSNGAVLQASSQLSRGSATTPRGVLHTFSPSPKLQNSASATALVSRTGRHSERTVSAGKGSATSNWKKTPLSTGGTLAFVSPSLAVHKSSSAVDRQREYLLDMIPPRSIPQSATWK
UniProt Q10472: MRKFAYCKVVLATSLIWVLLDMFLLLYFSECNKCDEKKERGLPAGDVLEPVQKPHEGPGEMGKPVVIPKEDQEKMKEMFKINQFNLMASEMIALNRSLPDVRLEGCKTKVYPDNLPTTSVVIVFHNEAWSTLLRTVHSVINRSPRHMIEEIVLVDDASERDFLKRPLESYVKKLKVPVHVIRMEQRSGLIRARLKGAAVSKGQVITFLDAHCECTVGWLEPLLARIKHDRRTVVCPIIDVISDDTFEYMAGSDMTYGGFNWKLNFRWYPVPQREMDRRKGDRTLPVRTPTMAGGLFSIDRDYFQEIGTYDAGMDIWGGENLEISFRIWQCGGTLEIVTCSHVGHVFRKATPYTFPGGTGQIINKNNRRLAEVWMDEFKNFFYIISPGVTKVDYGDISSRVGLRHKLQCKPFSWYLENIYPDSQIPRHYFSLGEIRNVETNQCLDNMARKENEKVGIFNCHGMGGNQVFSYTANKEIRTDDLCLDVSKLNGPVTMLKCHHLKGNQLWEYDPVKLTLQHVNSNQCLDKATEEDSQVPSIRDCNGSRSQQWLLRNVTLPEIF
UniProt O75420: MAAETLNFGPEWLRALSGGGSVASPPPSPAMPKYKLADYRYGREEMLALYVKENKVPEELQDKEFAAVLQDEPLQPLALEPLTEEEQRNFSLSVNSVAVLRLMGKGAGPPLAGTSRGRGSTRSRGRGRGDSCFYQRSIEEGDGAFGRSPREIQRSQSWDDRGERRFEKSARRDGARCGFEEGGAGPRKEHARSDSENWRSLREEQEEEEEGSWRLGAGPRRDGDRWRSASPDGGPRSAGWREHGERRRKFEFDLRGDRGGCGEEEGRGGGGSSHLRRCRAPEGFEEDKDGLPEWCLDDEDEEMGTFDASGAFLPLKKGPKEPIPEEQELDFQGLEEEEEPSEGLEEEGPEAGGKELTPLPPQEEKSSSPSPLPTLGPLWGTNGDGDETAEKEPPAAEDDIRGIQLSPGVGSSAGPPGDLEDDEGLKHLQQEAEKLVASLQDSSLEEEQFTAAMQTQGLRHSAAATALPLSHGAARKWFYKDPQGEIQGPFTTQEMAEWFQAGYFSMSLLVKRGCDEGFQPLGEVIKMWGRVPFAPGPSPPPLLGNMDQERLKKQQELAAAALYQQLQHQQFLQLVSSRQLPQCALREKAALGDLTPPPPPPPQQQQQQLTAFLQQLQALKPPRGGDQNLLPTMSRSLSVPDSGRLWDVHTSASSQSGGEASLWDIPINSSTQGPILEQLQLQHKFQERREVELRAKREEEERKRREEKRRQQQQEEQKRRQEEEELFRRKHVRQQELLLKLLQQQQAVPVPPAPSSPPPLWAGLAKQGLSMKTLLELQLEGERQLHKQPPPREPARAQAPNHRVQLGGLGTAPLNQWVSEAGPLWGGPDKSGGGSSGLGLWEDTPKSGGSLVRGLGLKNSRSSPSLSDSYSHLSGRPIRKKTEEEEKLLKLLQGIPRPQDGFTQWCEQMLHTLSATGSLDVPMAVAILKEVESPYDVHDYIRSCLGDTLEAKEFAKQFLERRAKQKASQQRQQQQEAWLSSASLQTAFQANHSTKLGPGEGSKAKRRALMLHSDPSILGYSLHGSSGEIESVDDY
UniProt Q96C23: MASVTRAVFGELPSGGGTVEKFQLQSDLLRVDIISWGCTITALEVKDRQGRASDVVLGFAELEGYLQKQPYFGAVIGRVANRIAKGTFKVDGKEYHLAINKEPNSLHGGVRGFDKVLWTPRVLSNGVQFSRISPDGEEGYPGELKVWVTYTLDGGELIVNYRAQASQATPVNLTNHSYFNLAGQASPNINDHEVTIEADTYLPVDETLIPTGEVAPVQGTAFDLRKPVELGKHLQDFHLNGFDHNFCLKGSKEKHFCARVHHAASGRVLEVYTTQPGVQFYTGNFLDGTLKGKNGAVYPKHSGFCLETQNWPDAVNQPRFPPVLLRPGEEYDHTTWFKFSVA
UniProt O75223: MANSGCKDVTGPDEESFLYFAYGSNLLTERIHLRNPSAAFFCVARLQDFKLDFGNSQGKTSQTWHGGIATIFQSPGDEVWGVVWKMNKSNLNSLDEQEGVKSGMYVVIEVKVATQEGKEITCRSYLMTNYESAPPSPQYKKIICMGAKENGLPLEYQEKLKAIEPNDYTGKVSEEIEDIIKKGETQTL
UniProt P04062: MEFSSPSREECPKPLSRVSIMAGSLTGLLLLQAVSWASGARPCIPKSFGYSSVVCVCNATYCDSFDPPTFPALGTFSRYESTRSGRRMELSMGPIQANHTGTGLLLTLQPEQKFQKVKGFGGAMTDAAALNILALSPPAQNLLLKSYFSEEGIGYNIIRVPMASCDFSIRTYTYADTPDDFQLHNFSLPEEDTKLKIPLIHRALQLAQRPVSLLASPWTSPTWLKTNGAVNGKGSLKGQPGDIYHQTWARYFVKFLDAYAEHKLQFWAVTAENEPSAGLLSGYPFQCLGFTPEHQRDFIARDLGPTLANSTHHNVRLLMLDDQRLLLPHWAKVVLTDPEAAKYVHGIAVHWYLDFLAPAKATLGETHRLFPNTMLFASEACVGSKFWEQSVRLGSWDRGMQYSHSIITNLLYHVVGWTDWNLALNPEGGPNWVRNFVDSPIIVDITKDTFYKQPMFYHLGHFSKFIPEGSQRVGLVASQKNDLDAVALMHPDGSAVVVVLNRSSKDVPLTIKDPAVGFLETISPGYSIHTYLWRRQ
UniProt Q9Y2X7: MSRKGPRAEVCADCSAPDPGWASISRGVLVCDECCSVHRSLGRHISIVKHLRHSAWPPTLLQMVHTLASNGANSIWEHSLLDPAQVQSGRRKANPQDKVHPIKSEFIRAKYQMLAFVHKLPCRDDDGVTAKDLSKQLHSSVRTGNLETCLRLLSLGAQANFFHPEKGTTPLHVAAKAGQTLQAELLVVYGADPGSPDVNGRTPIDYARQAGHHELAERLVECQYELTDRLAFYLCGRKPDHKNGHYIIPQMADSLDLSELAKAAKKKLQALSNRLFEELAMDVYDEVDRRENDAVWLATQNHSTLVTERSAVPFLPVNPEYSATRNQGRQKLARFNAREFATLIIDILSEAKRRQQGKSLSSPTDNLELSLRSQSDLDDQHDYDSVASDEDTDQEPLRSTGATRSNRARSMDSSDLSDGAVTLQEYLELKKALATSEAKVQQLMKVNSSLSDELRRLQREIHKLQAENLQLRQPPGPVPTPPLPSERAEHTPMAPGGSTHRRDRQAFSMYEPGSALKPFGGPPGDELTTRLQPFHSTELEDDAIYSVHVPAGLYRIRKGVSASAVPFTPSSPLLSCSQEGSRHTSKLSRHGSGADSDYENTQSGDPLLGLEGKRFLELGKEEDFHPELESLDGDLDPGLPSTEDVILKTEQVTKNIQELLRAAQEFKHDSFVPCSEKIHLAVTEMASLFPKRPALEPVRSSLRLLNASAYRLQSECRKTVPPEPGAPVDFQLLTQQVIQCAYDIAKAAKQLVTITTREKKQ
UniProt P31150: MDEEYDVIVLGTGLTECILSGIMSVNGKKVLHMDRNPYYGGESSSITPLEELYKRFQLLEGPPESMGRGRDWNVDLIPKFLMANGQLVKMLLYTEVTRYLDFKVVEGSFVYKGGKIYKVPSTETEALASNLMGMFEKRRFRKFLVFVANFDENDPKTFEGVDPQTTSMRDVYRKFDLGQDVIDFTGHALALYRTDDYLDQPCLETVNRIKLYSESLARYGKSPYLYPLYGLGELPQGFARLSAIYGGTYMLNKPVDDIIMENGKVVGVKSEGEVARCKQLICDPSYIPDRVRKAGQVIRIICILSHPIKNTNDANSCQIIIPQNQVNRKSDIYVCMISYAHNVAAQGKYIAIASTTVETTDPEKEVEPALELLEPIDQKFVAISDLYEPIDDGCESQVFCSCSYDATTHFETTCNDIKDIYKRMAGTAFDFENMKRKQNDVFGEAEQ
UniProt Q04446: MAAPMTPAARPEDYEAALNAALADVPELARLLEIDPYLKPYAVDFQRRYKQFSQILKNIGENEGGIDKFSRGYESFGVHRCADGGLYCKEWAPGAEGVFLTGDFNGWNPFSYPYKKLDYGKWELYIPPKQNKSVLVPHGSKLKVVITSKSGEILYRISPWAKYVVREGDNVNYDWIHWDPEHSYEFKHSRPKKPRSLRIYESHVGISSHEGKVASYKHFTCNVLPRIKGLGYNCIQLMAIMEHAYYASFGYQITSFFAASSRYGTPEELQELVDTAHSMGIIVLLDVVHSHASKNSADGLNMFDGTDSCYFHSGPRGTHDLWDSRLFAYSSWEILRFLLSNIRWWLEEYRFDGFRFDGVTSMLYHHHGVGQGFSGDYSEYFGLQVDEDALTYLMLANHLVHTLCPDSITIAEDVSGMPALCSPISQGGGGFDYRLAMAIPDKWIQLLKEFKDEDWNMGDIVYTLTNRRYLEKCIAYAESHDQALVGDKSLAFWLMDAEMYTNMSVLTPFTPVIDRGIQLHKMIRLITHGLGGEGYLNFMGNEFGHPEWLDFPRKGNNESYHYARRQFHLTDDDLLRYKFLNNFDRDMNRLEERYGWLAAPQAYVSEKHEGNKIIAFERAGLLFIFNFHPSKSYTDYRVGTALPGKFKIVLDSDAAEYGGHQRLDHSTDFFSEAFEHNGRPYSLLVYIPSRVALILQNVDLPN

Some of the results follow.
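Also: competitive profiling in live THP-1 cells: cysteine peptides tagged with an iodoacetamide desthiobiotin (IA-DTB) probe, intensity after compound treatment relative to DMSO-treated cells.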

Compound in the first test: Cc1cc(ccc1-c1ccccc1)C(=O)N1CCCN(CC1)C(=O)CCl [compound 10]
In words: probe-labelled cysteine peptide fold change vs DMSO (competition) (log2 fold change); higher = less target engagement (more negative = stronger competition). The note with it: 10 µM; THP-1; incubation time: 4 h.
On to “GEMIN8_Q9NWZ8_180_QQQLDAERLDSYVNADHDLYCNTR (UniProt Q9NWZ8)”, for which the “probe-labelled cysteine peptide fold change” value came to 0.0135.

Regarding “GATAD2B_Q8WXI9_444_ILCEQCMTSNQK (UniProt Q8WXI9)”, the “probe-labelled cysteine peptide fold change” value was found to be 0.0815.

On to “GALNT2_Q10471_496_HMDLCLTVVDRAPGSLIK (UniProt Q10471)”, for which the “probe-labelled cysteine peptide fold change” value is 0.0216.

Regarding “GCFC2_P16383_336_IYVENLIDCLNEK (UniProt P16383)”, the “probe-labelled cysteine peptide fold change” value was -0.00417.

Regarding “GCN1_Q92616_1535_QLSSCLPNIVPK (UniProt Q92616)”, the “probe-labelled cysteine peptide fold change” value was -0.0125.

For the target “GLA_P06280_378+382_GVACNPACFITQLLPVKR (UniProt P06280)”, the “probe-labelled cysteine peptide fold change” value came out at 0.071.

On to “GARS_P41250_616_CSVLPLSQNQEFMPFVK (UniProt P41250)”, for which the “probe-labelled cysteine peptide fold change” value is -0.0255.

On to “GCC2_Q8IWJ2_889_TRLENQNLLIQVEEVSQTCSK (UniProt Q8IWJ2)”, for which the “probe-labelled cysteine peptide fold change” value is -0.265.

On to “GALNT2_Q10471_539_HVGSNLCLDSR (UniProt Q10471)”, for which the “probe-labelled cysteine peptide fold change” value came out at 0.0506.

Take “GALNT2_Q10471_227+229_VLTFLDSHCECNEHWLEPLLER (UniProt Q10471)”: the “probe-labelled cysteine peptide fold change” value is -0.298.

As to “GATAD2A_Q86YP4_420_EPYMCAQCK (UniProt Q86YP4)”, the “probe-labelled cysteine peptide fold change” value turned out to be 0.0841.

On to “GALNT1_Q10472_482_TDDLCLDVSK (UniProt Q10472)”, for which the “probe-labelled cysteine peptide fold change” value is -0.0304.

Consider “GEMIN5_Q8TEQ6_501_KTVYTLAWGPPVPPMSLGGEGDRPSLALYSCGGEGIVLQHNPWK (UniProt Q8TEQ6)”, for which the “probe-labelled cysteine peptide fold change” value was determined as 0.0135.

For the target “GIGYF1_O75420_261_GGCGEEEGR (UniProt O75420)”, the “probe-labelled cysteine peptide fold change” value is 0.0933.

For the target “GEMIN7_Q9H840_44_APLRPEVPEIQECPIAQESLESQEQR (UniProt Q9H840)”, the “probe-labelled cysteine peptide fold change” value was -0.104.

On to “GALM_Q96C23_305_HSGFCLETQNWPDAVNQPR (UniProt Q96C23)”, for which the “probe-labelled cysteine peptide fold change” value is -0.00528.

With “GHDC_Q8N2G8_523_HLAQCLQER (UniProt Q8N2G8)”, the “probe-labelled cysteine peptide fold change” value is -0.142.

With “GCC2_Q8IWJ2_1306_VTALQEECR (UniProt Q8IWJ2)”, the “probe-labelled cysteine peptide fold change” value was found to be 0.122.

Regarding “GGNBP2_Q9H3C7_301_TIDIAQEEVLTCLGIHLYER (UniProt Q9H3C7)”, the “probe-labelled cysteine peptide fold change” value is -0.0758.

In the case of “GFM1_Q96RP9_594_GFLDACEK (UniProt Q96RP9)”, the “probe-labelled cysteine peptide fold change” value was -0.119.

For “GHDC_Q8N2G8_462_LDHCLQEASPR (UniProt Q8N2G8)”, the “probe-labelled cysteine peptide fold change” value was found to be 0.18.

On to “GGCT_O75223_144_KIICMGAK (UniProt O75223)”, for which the “probe-labelled cysteine peptide fold change” value is -0.0382.

For “GBA_P04062_165_VPMASCDFSIR (UniProt P04062)”, the “probe-labelled cysteine peptide fold change” value amounted to 0.129.

Take “GIT1_Q9Y2X7_222_LVECQYELTDR (UniProt Q9Y2X7)”: the “probe-labelled cysteine peptide fold change” value came out at 0.00532.

“GDPD1_Q8N9F7_75_IGTDMLELDCHITK (UniProt Q8N9F7)”: the “probe-labelled cysteine peptide fold change” value is -0.053.

On to “GARS_P41250_442+444_QHMENEMAHYACDCWDAESK (UniProt P41250)”, for which the “probe-labelled cysteine peptide fold change” value was 0.183.

On to “GALNT1_Q10472_214_GQVITFLDAHCECTVGWLEPLLAR (UniProt Q10472)”, for which the “probe-labelled cysteine peptide fold change” value is 0.104.

With “GIT2_Q14161_122_LPCRDDDSVTAK (UniProt Q14161)”, the “probe-labelled cysteine peptide fold change” value is -0.101.

Consider “GGPS1_O95749_247_YCVHYLEDVGSFEYTR (UniProt O95749)”, for which the “probe-labelled cysteine peptide fold change” value is -0.0424.

For the target “GIMAP2_Q9UG22_201_ELMDCIEDLLMEK (UniProt Q9UG22)”, the “probe-labelled cysteine peptide fold change” value came out at 0.356.

Take “GHDC_Q8N2G8_423_LLDHGCVESSILDSSAGSAPHYEVFVALR (UniProt Q8N2G8)”: the “probe-labelled cysteine peptide fold change” value is -0.0559.

As for “GAPVD1_Q14C86_293_TLSCVDRLEVGEVR (UniProt Q14C86)”, the “probe-labelled cysteine peptide fold change” value was 0.0447.

In the case of “GANAB_Q14697_423_DEADVLEVDQGFDDHNLPCDVIWLDIEHADGKR (UniProt Q14697)”, the “probe-labelled cysteine peptide fold change” value was -0.0335.

GAR1_Q9NY12_88_CTTDENK (UniProt Q9NY12): the “probe-labelled cysteine peptide fold change” value is -0.00656.

Take “GDI1_P31150_202_TDDYLDQPCLETVNR (UniProt P31150)”: the “probe-labelled cysteine peptide fold change” value worked out at 0.0586.

On to “GIPC3_Q8TF64_79_IAEAFGIAPTEILFCTLNSHK (UniProt Q8TF64)”, for which the “probe-labelled cysteine peptide fold change” value amounted to 0.0835.

Regarding “GBE1_Q04446_88_CADGGLYCK (UniProt Q04446)”, the “probe-labelled cysteine peptide fold change” value was 0.0659.

Turning to “GDI2_P50395_282_QLICDPSYVK (UniProt P50395)”, the “probe-labelled cysteine peptide fold change” value is -0.00251.

Consider “GAPVD1_Q14C86_1129_LALCSADSVAFPVLTHSTR (UniProt Q14C86)”, for which the “probe-labelled cysteine peptide fold change” value is -0.0678.

For “GEMIN5_Q8TEQ6_1051_CYLGATCAYDAAK (UniProt Q8TEQ6)”, the “probe-labelled cysteine peptide fold change” value came out at 0.411.

Staying with this test, now noted: 50 µM; THP-1; incubation time: 4 h.
As for “GEMIN8_Q9NWZ8_180_QQQLDAERLDSYVNADHDLYCNTR (UniProt Q9NWZ8)”, the “probe-labelled cysteine peptide fold change” value is -0.0851.

Regarding “GATAD2B_Q8WXI9_444_ILCEQCMTSNQK (UniProt Q8WXI9)”, the “probe-labelled cysteine peptide fold change” value was -0.214.

As to “GALNT2_Q10471_496_HMDLCLTVVDRAPGSLIK (UniProt Q10471)”, the “probe-labelled cysteine peptide fold change” value was -0.225.

Regarding “GCFC2_P16383_336_IYVENLIDCLNEK (UniProt P16383)”, the “probe-labelled cysteine peptide fold change” value worked out at 0.135.

“GCN1_Q92616_1535_QLSSCLPNIVPK (UniProt Q92616)”: the “probe-labelled cysteine peptide fold change” value is -0.263.

For “GLA_P06280_378+382_GVACNPACFITQLLPVKR (UniProt P06280)”, the “probe-labelled cysteine peptide fold change” value was -0.0718.

As to “GARS_P41250_616_CSVLPLSQNQEFMPFVK (UniProt P41250)”, the “probe-labelled cysteine peptide fold change” value is 0.0502.

Take “GCC2_Q8IWJ2_889_TRLENQNLLIQVEEVSQTCSK (UniProt Q8IWJ2)”: the “probe-labelled cysteine peptide fold change” value was -0.106.

With “GALNT2_Q10471_539_HVGSNLCLDSR (UniProt Q10471)”, the “probe-labelled cysteine peptide fold change” value was found to be 0.137.

For “GALNT2_Q10471_227+229_VLTFLDSHCECNEHWLEPLLER (UniProt Q10471)”, the “probe-labelled cysteine peptide fold change” value is -0.368.

As to “GATAD2A_Q86YP4_420_EPYMCAQCK (UniProt Q86YP4)”, the “probe-labelled cysteine peptide fold change” value was -0.39.

Turning to “GALNT1_Q10472_482_TDDLCLDVSK (UniProt Q10472)”, the “probe-labelled cysteine peptide fold change” value was 0.189.

As to “GEMIN5_Q8TEQ6_501_KTVYTLAWGPPVPPMSLGGEGDRPSLALYSCGGEGIVLQHNPWK (UniProt Q8TEQ6)”, the “probe-labelled cysteine peptide fold change” value was -0.141.

Take “GIGYF1_O75420_261_GGCGEEEGR (UniProt O75420)”: the “probe-labelled cysteine peptide fold change” value was -0.0779.

Turning to “GEMIN7_Q9H840_44_APLRPEVPEIQECPIAQESLESQEQR (UniProt Q9H840)”, the “probe-labelled cysteine peptide fold change” value was -0.0736.

As for “GALM_Q96C23_305_HSGFCLETQNWPDAVNQPR (UniProt Q96C23)”, the “probe-labelled cysteine peptide fold change” value is 0.0247.

In the case of “GHDC_Q8N2G8_523_HLAQCLQER (UniProt Q8N2G8)”, the “probe-labelled cysteine peptide fold change” value was found to be 0.0752.

Take “GCC2_Q8IWJ2_1306_VTALQEECR (UniProt Q8IWJ2)”: the “probe-labelled cysteine peptide fold change” value turned out to be 0.145.

Turning to “GGNBP2_Q9H3C7_301_TIDIAQEEVLTCLGIHLYER (UniProt Q9H3C7)”, the “probe-labelled cysteine peptide fold change” value was 0.341.

Consider “GFM1_Q96RP9_594_GFLDACEK (UniProt Q96RP9)”, for which the “probe-labelled cysteine peptide fold change” value is -0.243.

With “GHDC_Q8N2G8_462_LDHCLQEASPR (UniProt Q8N2G8)”, the “probe-labelled cysteine peptide fold change” value amounted to 0.652.

“GGCT_O75223_144_KIICMGAK (UniProt O75223)”: the “probe-labelled cysteine peptide fold change” value is -0.262.

“GBA_P04062_165_VPMASCDFSIR (UniProt P04062)”: the “probe-labelled cysteine peptide fold change” value was -0.173.

Take “GIT1_Q9Y2X7_222_LVECQYELTDR (UniProt Q9Y2X7)”: the “probe-labelled cysteine peptide fold change” value turned out to be 0.102.

In the case of “GDPD1_Q8N9F7_75_IGTDMLELDCHITK (UniProt Q8N9F7)”, the “probe-labelled cysteine peptide fold change” value is -0.156.

“GARS_P41250_442+444_QHMENEMAHYACDCWDAESK (UniProt P41250)”: the “probe-labelled cysteine peptide fold change” value is -0.55.

For “GALNT1_Q10472_214_GQVITFLDAHCECTVGWLEPLLAR (UniProt Q10472)”, the “probe-labelled cysteine peptide fold change” value amounted to 0.157.

Consider “GIT2_Q14161_122_LPCRDDDSVTAK (UniProt Q14161)”, for which the “probe-labelled cysteine peptide fold change” value was -0.401.

Turning to “GGPS1_O95749_247_YCVHYLEDVGSFEYTR (UniProt O95749)”, the “probe-labelled cysteine peptide fold change” value worked out at 0.118.

With “GIMAP2_Q9UG22_201_ELMDCIEDLLMEK (UniProt Q9UG22)”, the “probe-labelled cysteine peptide fold change” value came to 0.119.

With “GHDC_Q8N2G8_423_LLDHGCVESSILDSSAGSAPHYEVFVALR (UniProt Q8N2G8)”, the “probe-labelled cysteine peptide fold change” value was -0.211.

For the target “GAPVD1_Q14C86_293_TLSCVDRLEVGEVR (UniProt Q14C86)”, the “probe-labelled cysteine peptide fold change” value worked out at 0.492.

On to “GANAB_Q14697_423_DEADVLEVDQGFDDHNLPCDVIWLDIEHADGKR (UniProt Q14697)”, for which the “probe-labelled cysteine peptide fold change” value was determined as 0.391.

GAR1_Q9NY12_88_CTTDENK (UniProt Q9NY12): the “probe-labelled cysteine peptide fold change” value came to 0.0352.

With “GDI1_P31150_202_TDDYLDQPCLETVNR (UniProt P31150)”, the “probe-labelled cysteine peptide fold change” value was 0.0584.

In the case of “GIPC3_Q8TF64_79_IAEAFGIAPTEILFCTLNSHK (UniProt Q8TF64)”, the “probe-labelled cysteine peptide fold change” value was found to be 0.142.

Consider “GBE1_Q04446_88_CADGGLYCK (UniProt Q04446)”, for which the “probe-labelled cysteine peptide fold change” value was -0.25.

For the target “GDI2_P50395_282_QLICDPSYVK (UniProt P50395)”, the “probe-labelled cysteine peptide fold change” value is 0.0252.

Consider “GAPVD1_Q14C86_1129_LALCSADSVAFPVLTHSTR (UniProt Q14C86)”, for which the “probe-labelled cysteine peptide fold change” value is -0.0181.

In the case of “GEMIN5_Q8TEQ6_1051_CYLGATCAYDAAK (UniProt Q8TEQ6)”, the “probe-labelled cysteine peptide fold change” value came to 0.197.
